In this assay the test system is Salmonella enterica serovar Typhimurium SL1344. The assay can be described thus: bacterial growth OD600 after 18 h with compound and polymyxin B; higher = more bacterial growth (less inhibition). The settings on record: 50 µM, Mueller-Hinton broth.

Some of the results follow. These are raw signals, not scaled to a control.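 In the initial screen, polymyxin B was used at a concentration that permeabilizes Salmonella's outer membrane but not its inner membrane. Maximum growth was set by DMSO wells with or without polymyxin B. Since plates varied, data were ranked per plate, and compounds giving the lowest OD600 advanced as hits.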

Regarding `COc1cc(CN2CCOc3ccc(C(O)Cc4ccccc4)cc3C2)cc(OC)c1OC` (stereo unspecified), under “polymyxin B 0.75 µg/mL”, the “bacterial growth OD600” value came out at 0.608. Consider `CC(C)(O)C#Cc1ccc(CN2CCCC(CCC(=O)N3CCOCC3)C2)s1` (stereo unspecified), for which the “bacterial growth OD600” value (polymyxin B 1 µg/mL) was determined as 0.924. As for `O=C(CCN1Cc2ccccc2OC(c2ccccc2)C1)NCc1cc(-c2ccccc2)[nH]n1` (stereo unspecified), the “bacterial growth OD600” value (polymyxin B 0.75 µg/mL) was -0.001. Same read-out and setting: as for `Cc1nc(N2CCC(C(=O)N(C)Cc3cccc4ncccc34)CC2)nc2ccc(F)cc12`, the figure is 0.001; as for `COc1ccc(-c2cc(C)cc3c2OC(CNC(=O)C2=CCCCC2)C3)nn1` (stereo unspecified), 0.005.

In the case of `CCS(=O)(=O)c1ncc(CN2C[C@@H]3CCC[C@H]2C3)n1CCc1ccccc1`, where the note is “polymyxin B 1 µg/mL”, the “bacterial growth OD600” value stood at 1.21. Still for that read-out and setting: the result for `COc1cccc(-c2cc(CC3(O)CCN(Cc4cnc(OC)nc4)CC3)on2)c1` reads 0.954; that for `CC(C)N(Cc1nccn1C)C(=O)c1cc(Cn2ccc3ccccc32)[nH]n1`, 0.916. As for `Cc1ccccc1N1C(=O)CN(C(=O)C2COc3ccccc3O2)CC1C` (stereo unspecified), the “bacterial growth OD600” value (polymyxin B 0.75 µg/mL) came out at 0.823. With `CC(C)Oc1ccc(C(=O)N2CCC(CO)(Cc3ccc(Cl)cc3)CC2)cc1`, the “bacterial growth OD600” value (polymyxin B 1 µg/mL) was 0.021. As for `O=C(Nc1ccc(-c2cscn2)cc1)C1CCCN1Cc1cccc(O)c1` (stereo unspecified), where the note is “polymyxin B 0.75 µg/mL”, the “bacterial growth OD600” value was determined as 0.706. Take `CCc1cc(C(=O)N2CCOc3ccc(CN4CCC(OCc5ccccc5)CC4)cc3C2)no1`: for the setting “polymyxin B 0.75 µg/mL”, the “bacterial growth OD600” value came out at 0.78.

Take `O=C(Cc1c(F)ccc(F)c1F)NCC1CC(Cc2ccc(F)cc2)=NO1` (stereo unspecified): the “bacterial growth OD600” value (polymyxin B 0.75 µg/mL) was found to be 0.663. For `Cc1ccc(C(=O)N2CCC(n3nccc3NC(=O)c3ccc4c(c3)OCO4)CC2)s1`, the “bacterial growth OD600” value (polymyxin B 1 µg/mL) is 1.18.

As for `Cc1cccc2c(NCc3ccccc3F)nc(CNC(=O)CCc3nc4cc(F)ccc4[nH]3)nc12`, the “bacterial growth OD600” value (polymyxin B 0.75 µg/mL) is 0.286. In the case of `Cc1ccc(NC2CCCN(C(=O)c3ccc4c(c3)no[n+]4[O-])C2)cc1C` (stereo unspecified), the “bacterial growth OD600” value (polymyxin B 1 µg/mL) amounted to 1.13. The same measure, in the same setting: as for `Cc1nc(CN(C)CC2(O)CCCN(Cc3cccc(F)c3F)C2=O)cs1` (stereo unspecified), the figure is 1.02. With `C#CCN(Cc1ccco1)C(=O)c1cc(NC(=O)c2ccccc2OC)c2c(c1)nc(CC)n2C`, under “polymyxin B 0.75 µg/mL”, the “bacterial growth OD600” value amounted to 0.95.

On to `CCCCn1c(CN(C)CCOc2ccccc2)cnc1S(=O)(=O)CC`, for which the “bacterial growth OD600” value (polymyxin B 1 µg/mL) was determined as 1.

On to `COc1ccc(C(=O)N2CCCC(Nc3ccc(F)cc3)C2)c(OC)c1OC` (stereo unspecified), for which the “bacterial growth OD600” value (polymyxin B 1 µg/mL) is 1.12.

In the case of `CCn1ccnc1CNC(=O)c1cc(OC)ccc1OC1CCN(C(=O)C2CC2)CC1`, the “bacterial growth OD600” value (polymyxin B 1 µg/mL) amounted to 0.862. Regarding `COC(=O)CCC(=O)N1CCCC(Nc2ccccc2)C1` (stereo unspecified), the “bacterial growth OD600” value (polymyxin B 1 µg/mL) was 1.17. As to `O=C(c1ccsc1)N1CCc2[nH]nc(-c3ccccc3)c2C1`, the “bacterial growth OD600” value (polymyxin B 0.75 µg/mL) was 0.737.

Regarding `O=C(NCCn1cccn1)C1CCC(=O)N(CCc2cccc(F)c2)C1` (stereo unspecified), the “bacterial growth OD600” value (polymyxin B 1 µg/mL) stood at 0.893. `CN(C)C(=O)CN1CCN(C(=O)CC(c2ccccc2)c2ccccc2F)CC1` (stereo unspecified): the “bacterial growth OD600” value (polymyxin B 0.75 µg/mL) is 0.713.

With `COc1ccc(CNC2CCCc3nc(N4CCC(CO)CC4)ncc32)cc1C` (stereo unspecified), the “bacterial growth OD600” value (polymyxin B 0.75 µg/mL) was determined as 0.776. Take `Cc1ccccc1C1(CC(=O)N2CCCC2c2ccc(F)cc2)CC(=O)N(Cc2cccnc2)C1=O` (stereo unspecified): the “bacterial growth OD600” value (polymyxin B 0.75 µg/mL) turned out to be 0.004. On to `COc1cc(OC)cc(C(=O)NCC2CCCN(C(=O)CC3=CCCCC3)C2)c1` (stereo unspecified), for which, where the note is “polymyxin B 1 µg/mL”, the “bacterial growth OD600” value worked out at 0.964.

With `Cc1cc2nc(N3CCC(C(=O)NCC4(c5ccccc5)CCOCC4)CC3)nc(C)c2cc1C`, the “bacterial growth OD600” value (polymyxin B 0.75 µg/mL) came to 0.879. The same measure, in the same setting: the result for `O=C(Cn1nnnc1CN1CCOCC1)N1CCN(c2ccccc2)C(=O)C1` reads 0.845.

Turning to `COc1ccc(CC(=O)N(C)CC2CCCN(CCc3ccccc3F)C2)cc1` (stereo unspecified), the “bacterial growth OD600” value (polymyxin B 1 µg/mL) came out at 1.

(Values after the supplement of paper PMC12889115.)
